Test results from paper PMC4477661.

Assays:
[1] = target: T1, proliferating cell nuclear antigen (PCNA) of Leishmania donovani (Leishmania donovani (endogenous in Ld1S promastigotes)) (UniProt B5TV91); assay: co-IP; anti-PCNA antibodies immobilised on Protein A sepharose/CL6B sepharose; whole cell lysates of promastigotes expressing HAT3-FLAG treated with DNase I, incubated overnight at 4°C; washed with 1x PBS-0.2% Triton X-100; western blot with anti-FLAG; logarithmically growing cells and cells synchronised with hydroxyurea (G1/S, S, G2/M)
T1 sequence: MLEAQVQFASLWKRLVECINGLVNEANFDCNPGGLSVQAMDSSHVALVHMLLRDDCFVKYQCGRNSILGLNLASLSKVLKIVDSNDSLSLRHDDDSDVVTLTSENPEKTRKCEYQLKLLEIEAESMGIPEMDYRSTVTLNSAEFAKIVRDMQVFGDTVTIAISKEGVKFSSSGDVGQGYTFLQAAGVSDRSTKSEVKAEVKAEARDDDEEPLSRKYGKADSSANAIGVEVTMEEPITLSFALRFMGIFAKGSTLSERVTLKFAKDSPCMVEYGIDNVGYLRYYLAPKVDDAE

[2] = target: Leishmania donovani histone acetyltransferase HAT3 with FLAG tag (HAT3-FLAG) (Leishmania donovani); assay: co-IP; HAT3-FLAG precipitated on FLAG-M2 agarose beads from whole cell lysates of promastigotes; western blot with anti-PCNA; logarithmically growing cells, also 8 h after UV exposure, with or without pre-incubation with 20 uM MG132

- binding [1]: binds
Molecule: Leishmania donovani histone acetyltransferase HAT3 with FLAG tag (HAT3-FLAG) (enzyme)

- binding [2]: binds
B1: proliferating cell nuclear antigen (PCNA) of Leishmania donovani (protein, UniProt B5TV91 1-292)
chain: T1 sequence

No constants are given. Whether binding was seen depends on the method and setting. Binding seen in cells or lysates may run through a third protein. Binding can be weak; no strength is given. Each block holds one molecule with its values, some of them ahead of it.
